Binding data for two substances are collected here from PMC6100724, “Proteome‐wide analysis of phospho‐regulated PDZ domain interactions” (Molecular Systems Biology, 2018).

Amino acid sequences for entries named in this document (tags omitted). A change or cut given only in a name is not applied to a line headed by its entry. Residues count along the entry.
UniProt Q15349: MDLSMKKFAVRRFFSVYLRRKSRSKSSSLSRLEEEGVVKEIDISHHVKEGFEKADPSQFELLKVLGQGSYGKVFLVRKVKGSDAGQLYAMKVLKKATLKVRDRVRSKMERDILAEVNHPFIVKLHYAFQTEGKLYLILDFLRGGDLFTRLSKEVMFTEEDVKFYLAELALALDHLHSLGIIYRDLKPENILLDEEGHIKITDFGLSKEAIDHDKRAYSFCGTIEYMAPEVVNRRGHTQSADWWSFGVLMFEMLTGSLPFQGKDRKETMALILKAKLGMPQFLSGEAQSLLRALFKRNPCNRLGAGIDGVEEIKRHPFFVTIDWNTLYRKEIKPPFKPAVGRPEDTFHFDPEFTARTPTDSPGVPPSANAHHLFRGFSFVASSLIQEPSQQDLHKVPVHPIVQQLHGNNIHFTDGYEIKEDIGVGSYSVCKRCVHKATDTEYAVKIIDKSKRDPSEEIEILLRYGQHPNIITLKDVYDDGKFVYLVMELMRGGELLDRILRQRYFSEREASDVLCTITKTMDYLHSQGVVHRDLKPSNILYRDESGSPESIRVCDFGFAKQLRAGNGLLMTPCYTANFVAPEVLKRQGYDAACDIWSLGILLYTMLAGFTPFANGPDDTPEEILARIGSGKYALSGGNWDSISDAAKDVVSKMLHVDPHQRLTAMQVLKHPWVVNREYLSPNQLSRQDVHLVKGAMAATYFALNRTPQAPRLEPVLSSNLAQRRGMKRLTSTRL
UniProt Q12959, residues 311-407: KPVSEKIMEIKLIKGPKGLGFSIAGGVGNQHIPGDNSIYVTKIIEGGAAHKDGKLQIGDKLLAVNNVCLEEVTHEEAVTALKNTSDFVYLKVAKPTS
UniProt Q14160: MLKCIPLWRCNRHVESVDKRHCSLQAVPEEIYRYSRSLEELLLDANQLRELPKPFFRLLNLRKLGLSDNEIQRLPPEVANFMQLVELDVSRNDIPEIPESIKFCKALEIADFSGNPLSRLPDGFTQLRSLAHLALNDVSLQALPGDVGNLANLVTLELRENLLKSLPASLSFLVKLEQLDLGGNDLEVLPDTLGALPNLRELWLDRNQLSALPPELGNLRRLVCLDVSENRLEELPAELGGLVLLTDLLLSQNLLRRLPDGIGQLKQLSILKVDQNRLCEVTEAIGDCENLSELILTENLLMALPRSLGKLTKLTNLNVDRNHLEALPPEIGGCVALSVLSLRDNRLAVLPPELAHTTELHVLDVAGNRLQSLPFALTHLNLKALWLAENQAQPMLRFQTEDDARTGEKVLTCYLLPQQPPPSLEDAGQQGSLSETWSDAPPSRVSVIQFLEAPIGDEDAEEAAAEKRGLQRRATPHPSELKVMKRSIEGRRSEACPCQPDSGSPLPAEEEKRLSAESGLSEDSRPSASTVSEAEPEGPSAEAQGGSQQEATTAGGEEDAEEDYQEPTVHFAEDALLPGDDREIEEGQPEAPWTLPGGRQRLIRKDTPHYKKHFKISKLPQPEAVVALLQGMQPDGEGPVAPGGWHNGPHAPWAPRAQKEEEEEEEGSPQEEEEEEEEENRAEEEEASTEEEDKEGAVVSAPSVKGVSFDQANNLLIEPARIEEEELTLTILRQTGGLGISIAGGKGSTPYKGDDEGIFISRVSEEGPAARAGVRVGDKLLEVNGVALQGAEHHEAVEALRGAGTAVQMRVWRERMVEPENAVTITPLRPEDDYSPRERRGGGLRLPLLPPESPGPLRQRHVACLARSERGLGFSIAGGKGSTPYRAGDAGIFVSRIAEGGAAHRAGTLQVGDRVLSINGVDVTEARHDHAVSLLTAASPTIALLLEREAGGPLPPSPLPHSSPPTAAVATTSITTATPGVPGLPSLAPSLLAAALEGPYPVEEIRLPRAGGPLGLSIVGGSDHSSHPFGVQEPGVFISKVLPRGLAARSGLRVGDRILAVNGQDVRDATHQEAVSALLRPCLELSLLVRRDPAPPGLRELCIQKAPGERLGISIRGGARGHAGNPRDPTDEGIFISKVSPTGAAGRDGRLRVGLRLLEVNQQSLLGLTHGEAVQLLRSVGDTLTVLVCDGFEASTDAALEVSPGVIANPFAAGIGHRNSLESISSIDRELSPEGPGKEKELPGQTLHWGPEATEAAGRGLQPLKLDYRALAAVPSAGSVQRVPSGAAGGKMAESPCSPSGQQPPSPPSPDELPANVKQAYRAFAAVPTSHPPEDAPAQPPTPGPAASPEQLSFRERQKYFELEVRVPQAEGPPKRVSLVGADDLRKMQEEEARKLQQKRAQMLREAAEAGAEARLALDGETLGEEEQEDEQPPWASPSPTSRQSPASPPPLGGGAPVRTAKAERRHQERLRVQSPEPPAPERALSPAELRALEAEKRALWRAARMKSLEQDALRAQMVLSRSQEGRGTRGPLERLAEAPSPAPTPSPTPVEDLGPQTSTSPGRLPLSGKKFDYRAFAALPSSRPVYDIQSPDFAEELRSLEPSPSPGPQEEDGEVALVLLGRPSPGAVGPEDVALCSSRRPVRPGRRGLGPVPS

These are yes or no findings as the source states them, for the method shown. For some assays here: Binding seen in cells or lysates may run through a third protein. Some results given as binding are weak or reduced against the parent protein; the word gives no strength.

In experiment [1] the target is T1, FITC-RLTpSTRL (RPS6KA2 peptide, phosphorylated at p-3) (human).
T1 sequence (peptide, phosphoserine at p-3 (RLT(pS)TRL); FITC on the N-terminus): RLTSTRL
Put plainly: MST; FITC-labeled peptide fixed at 25-50 nM, protein (Scribble PDZ1 or DLG1 PDZ2) in a 1:1 dilution series; 50 mM Tris-HCl pH 7.4, 0.1% Tween-20; thermophoresis and T-Jump signal; n = 3; both purified.

Experiment [2] addresses Flag-tagged full-length RPS6KA2 S730E (human) (UniProt Q15349). Nature of the experiment: co-IP; HEK293 co-transfected with GFP-Scribble and Flag-RPS6KA2 constructs; lysate precipitated with anti-Flag M2 magnetic beads overnight at 4°C; anti-Flag and anti-GFP blots.

As to “DLG1 PDZ2 (His-tagged, aa 311-407) (from UniProt Q12959 311-407) (domain or fragment)”, the binding entry in experiment [1] was “binds”.
With “GFP-tagged full-length human Scribble (from UniProt Q14160 1-1655)”, in experiment [2], the binding result is given as “binds”.
